Assay results as given in the supplement of paper PMC10331698.
± gives the standard deviation of the averaged measurements. Most entries show no effect beyond the scatter of the controls.

Legend:
Assay in all cases: level (log10 ratio to DMSO vehicle control); higher = higher biomarker level / cell amount than vehicle control
[1] = compound: FC(F)(F)C(F)(F)C(F)(F)C(F)(F)C(F)(F)C(F)(F)C(F)(F)I [1-Iodopentadecafluoroheptane]; conditions: in DMSO
Experimental: (§1)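 BioMAP Diversity Plus panel of 12 human primary cell co-culture systems (3C, 4H, LPS, SAg, BT, BF4T, BE3C, CASM3C, HDF3CGF, KF3CT, MyoF, Mphg). Compounds were added 1 h before stimulation and left for 24 h (MyoF 48 h; BT 72 h for soluble read-outs or 6 d for IgG). Biomarkers were read by ELISA, cytotoxicity by SRB, PBMC viability and proliferation by Alamar Blue. Each well value was divided by the mean of 8 DMSO control wells on the same plate and log10 transformed; duplicate blinded samples were tested at 4 concentrations.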

[2] = compound: NC(=O)C(F)(F)C(F)(F)C(F)(F)C(F)(F)C(F)(F)C(F)(F)C(F)(F)F [Perfluorooctanamide]; conditions: 2200 nM; in DMSO
Experimental: as §1

[3] = compound: O=C(O)C(F)(F)C(F)(F)C(F)(F)C(F)(F)C(F)(F)C(F)(F)C(F)(F)C(F)F [9-H-Perfluorononanoic acid]; conditions: 2200 nM; in DMSO
Experimental: as §1

[4] = compound: O=C(O)C(F)(F)C(F)(F)C(F)(F)F [Perfluorobutanoic acid]; conditions: 2200 nM; in DMSO
Experimental: as §1

[5] = compound: O=C(O)C(F)(F)OC(F)(F)C(F)(F)OC(F)(F)C(F)(F)C(F)(F)C(F)(F)F [Perfluoro-3,6-dioxadecanoic acid]; conditions: 2200 nM; in DMSO
Experimental: as §1

[6] = compound: FC(F)(F)C(F)(F)C(F)(F)C(F)(F)C(F)(F)C(F)(F)C(F)(F)CCI [1-Iodo-1H,1H,2H,2H-perfluorononane]; conditions: in DMSO
Experimental: as §1

[7] = compound: C=C(C)C(=O)OCC(F)(F)C(F)(F)C(F)(F)F [2,2,3,3,4,4,4-Heptafluorobutyl methacrylate]; conditions: 2200 nM; in DMSO
Experimental: as §1

[8] = compound: O=C(O)C(F)(F)C(F)(F)F [Perfluoropropanoic acid]; conditions: 2200 nM; in DMSO
Experimental: as §1

[9] = compound: O=C(O)C(F)(F)OC(F)(F)C(F)(F)OC(F)(F)C(=O)O [Perfluoro-3,6-dioxaoctane-1,8-dioic acid]; conditions: 2200 nM; in DMSO
Experimental: as §1

[10] = compound: OCCC(F)(F)C(F)(F)C(F)(F)C(F)(F)C(F)(F)C(F)(F)C(F)(F)C(F)(F)F [8:2 Fluorotelomer alcohol]; conditions: 2200 nM; in DMSO
Experimental: as §1

[11] = compound: FC(F)C(F)(F)COCC1CO1 [((2,2,3,3-Tetrafluoropropoxy)methyl)oxirane]; conditions: 2200 nM; in DMSO
Experimental: as §1

[12] = compound: OCC(F)(F)C(F)(F)C(F)(F)C(F)(F)C(F)(F)C(F)(F)C(F)(F)C(F)(F)C(F)(F)C(F)(F)C(F)(F)F [11:1 Fluorotelomer alcohol]; conditions: in DMSO
Experimental: as §1

[13] = compound: O=S(=O)(Cl)C(F)(F)C(F)(F)C(F)(F)C(F)(F)C(F)(F)C(F)(F)C(F)(F)C(F)(F)F [Perfluoro-1-octanesulfonyl chloride]; conditions: 2200 nM; in DMSO
Experimental: as §1

[14] = compound: O=C(O)C(F)(F)C(F)(F)OC(F)(F)F [Perfluoro-3-methoxypropanoic acid]; conditions: 2200 nM; in DMSO
Experimental: as §1

[15] = compound: O=C(O)C=CC(F)(C(F)(F)F)C(F)(F)F [3-(Perfluoroisopropyl)-2-propenoic acid]; conditions: in DMSO
Experimental: as §1

[16] = compound: O=C(O)C(F)(F)C(F)(F)C(F)(F)C(F)(F)C(F)(F)C(F)(F)C(F)(F)C(F)(F)C(F)(F)C(F)(F)F [Perfluoroundecanoic acid]; conditions: in DMSO
Experimental: as §1

[17] = compound: C=CC(=O)OCC(F)(F)C(F)(F)C(F)(F)C(F)(F)COC(=O)C=C [1H,1H,6H,6H-Perfluorohexane-1,6-diol diacrylate]; conditions: 2200 nM; in DMSO
Experimental: as §1

[18] = compound: O=P(O)(O)CCC(F)(F)C(F)(F)C(F)(F)C(F)(F)C(F)(F)C(F)(F)C(F)(F)C(F)(F)F [((Perfluorooctyl)ethyl)phosphonic acid]; conditions: 2200 nM; in DMSO
Experimental: as §1

| Test System | level (log10) ([1]; 740 nM) | level (log10) ([1]; 2200 nM) | level (log10) ([1]; 6700 nM) | level (log10) ([1]; 20000 nM) | level (log10) [2] | level (log10) [3] | level (log10) [4] | level (log10) [5] | level (log10) ([6]; 740 nM) | level (log10) ([6]; 2200 nM) | level (log10) ([6]; 6700 nM) | level (log10) ([6]; 20000 nM) | level (log10) [7] | level (log10) [8] | level (log10) [9] | level (log10) [10] | level (log10) [11] | level (log10) ([12]; 370 nM) | level (log10) ([12]; 1100 nM) | level (log10) ([12]; 3300 nM) | level (log10) ([12]; 10000 nM) | level (log10) [13] | level (log10) [14] | level (log10) ([15]; 2200 nM) | level (log10) ([15]; 6700 nM) | level (log10) ([15]; 20000 nM) | level (log10) ([15]; 60000 nM) | level (log10) ([16]; 740 nM) | level (log10) ([16]; 2200 nM) | level (log10) [17] | level (log10) [18] |
| --- | --- | --- | --- | --- | --- | --- | --- | --- | --- | --- | --- | --- | --- | --- | --- | --- | --- | --- | --- | --- | --- | --- | --- | --- | --- | --- | --- | --- | --- | --- | --- |
| HDF3CGF:TIMP-1 | 0.004 ± 0.025 | -0.005 ± 0.031 | -0.0185 ± 0.0021 | -0.024 ± 0.0042 | 0.0005 ± 0.011 | -0.012 ± 0.038 | 0.0055 ± 0.005 | 0.0025 ± 0.03 | 0.004 ± 0.031 | 0.001 ± 0.0057 | -0.0035 ± 0.0035 | 0.047 ± 0.0085 | -0.038 ± 0.013 | -0.006 ± 0.025 | 0.01 ± 0.064 | 0.024 ± 0.037 | 0.006 ± 0.027 | -0.004 ± 0.0028 | -0.029 ± 0.024 | -0.07 ± 0.0085 | -0.033 ± 0.016 | 0.011 ± 0.014 | 0.008 ± 0.09 | 0.0115 ± 0.039 | -0.006 ± 0.014 | 0.0105 ± 0.015 | 0.007 ± 0.0057 | 0.0025 ± 0.0064 | 0.019 ± 0.0099 | -0.0355 ± 0.039 | 0.0235 ± 0.0078 |
| BE3C:CXCL9/MIG | 0.009 ± 0.0099 | 0.009 ± 0.024 | -0.0035 ± 0.021 | 0.003 ± 0.013 | 0.021 ± 0.011 | -0.007 ± 0.0042 | -0.0005 ± 0.019 | -0.001 ± 0.027 | -0.0065 ± 0.005 | -0.001 ± 0.0028 | -0.0085 ± 0.0035 | -0.0015 ± 0.0092 | 0.0015 ± 0.0092 | -0.003 | 0.005 ± 0.035 | 0.0035 ± 0.012 | -0.009 ± 0.018 | 0.001 ± 0.011 | -0.0195 ± 0.00071 | -0.03 ± 0.0028 | -0.0385 ± 0.022 | 0.0055 ± 0.012 | 0.013 ± 0.02 | 0.0125 ± 0.033 | 0.0135 ± 0.015 | 0.016 ± 0.017 | 0.0235 ± 0.013 | 0.014 ± 0.0099 | 0.013 ± 0.0042 | 0.0105 ± 0.00071 | 0.0175 ± 0.018 |
| BE3C:MMP-1 | -0.008 ± 0.0071 | -0.0115 ± 0.012 | -0.0205 ± 0.0078 | -0.011 | 0.001 ± 0.0014 | 0.02 ± 0.034 | 0.0315 ± 0.044 | 0.0205 ± 0.023 | 0.025 ± 0.024 | -0.0115 ± 0.0078 | 0.011 ± 0.0071 | 0.059 ± 0.031 | 0.0145 ± 0.025 | 0.013 ± 0.028 | -0.0175 ± 0.03 | 0.0175 ± 0.074 | -0.0215 ± 0.013 | -0.0065 ± 0.043 | -0.0275 ± 0.018 | -0.0685 ± 0.015 | -0.077 | 0.0385 ± 0.077 | -0.0125 ± 0.026 | 0.034 ± 0.098 | 0.0495 ± 0.06 | 0.034 ± 0.061 | 0.085 ± 0.0028 | -0.0085 ± 0.013 | -0.011 ± 0.013 | -0.0115 ± 0.022 | 0.0635 ± 0.054 |
| HDF3CGF:SRB | -0.005 ± 0.0028 | -0.0125 ± 0.0035 | 0.013 ± 0.021 | -0.002 ± 0.016 | 0.0165 ± 0.005 | 0.012 ± 0.0057 | 0.025 ± 0.044 | -0.0045 ± 0.005 | -0.019 ± 0.0071 | -0.005 ± 0.017 | 0.016 ± 0.045 | -0.052 ± 0.071 | -0.0295 ± 0.021 | 0.004 ± 0.014 | 0.005 ± 0.045 | -0.033 ± 0.03 | -0.022 ± 0.0085 | -0.021 ± 0.025 | -0.0055 ± 0.011 | -0.0055 ± 0.016 | 0.0315 ± 0.036 | -0.008 ± 0.028 | -0.0125 ± 0.042 | 0.002 ± 0.055 | -0.014 ± 0.055 | 0.0205 ± 0.011 | -0.0055 ± 0.022 | 0.0175 ± 0.013 | 0.0285 ± 0.0092 | -0.011 ± 0.0071 | -0.001 ± 0.03 |
